These are yes or no findings as the source states them, for the method shown. For some assays here: In cells and extracts the contact can be indirect. Some results given as binding are weak or reduced against the parent protein; the word gives no strength.

By UniProt entry, the sequences of proteins in these tests, tags left out.
UniProt P0ACP1: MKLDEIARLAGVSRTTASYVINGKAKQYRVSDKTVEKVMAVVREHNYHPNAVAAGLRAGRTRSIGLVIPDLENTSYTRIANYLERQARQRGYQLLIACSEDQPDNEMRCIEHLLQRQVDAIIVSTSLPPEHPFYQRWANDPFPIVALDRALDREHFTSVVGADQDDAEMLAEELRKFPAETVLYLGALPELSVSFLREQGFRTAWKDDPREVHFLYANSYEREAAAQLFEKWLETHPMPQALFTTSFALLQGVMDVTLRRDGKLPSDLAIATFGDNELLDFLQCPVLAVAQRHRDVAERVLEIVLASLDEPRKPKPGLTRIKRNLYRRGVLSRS

In doi:10.1101/201277 (bioRxiv, 2017) one finds binding data, which are given here for one molecule.

The target in assay [1] is catabolite repressor activator protein (Cra), wild-type (E. coli) (UniProt P0ACP1). The assay is described as follows: co-purification.
For assay [2] the target is unchanged. The assay is described as follows: pull-down.

B1: fructose-1-kinase (FruK), recombinant, separately purified (enzyme, E. coli, UniProt P0AEW9 1-312, looked up)
chain: MSRRVATITLNPAYDLVGFCPEIERGEVNLVKTTGLHAAGKGINVAKVLKDLGIDVTVGGFLGKDNQDGFQQLFSELGIANRFQVVQGRTRINVKLTEKDGEVTDFNFSGFEVTPADWERFVTDSLSWLGQFDMVCVSGSLPSGVSPEAFTDWMTRLRSQCPCIIFDSSREALVAGLKAAPWLVKPNRRELEIWAGRKLPEMKDVIEAAHALREQGIAHVVISLGAEGALWVNASGEWIAKPPSVDVVSTVGAGDSMVGGLIYGLLMRESSEHTLRLATAVAALAVSQSNVGITDRPQLAAMMARVDLQPFN
With B1, the binding entry in assay [1] and in assay [2] was “binds” each time.
